Test results: paper PMC7704523
These are yes or no findings as the source states them, for the method shown. In cells and extracts the contact can be indirect. Some results given as binding are weak or reduced against the parent protein; the word gives no strength.

By UniProt entry, the sequences of proteins in these tests, tags left out. Residues count along the entry.
UniProt P11881: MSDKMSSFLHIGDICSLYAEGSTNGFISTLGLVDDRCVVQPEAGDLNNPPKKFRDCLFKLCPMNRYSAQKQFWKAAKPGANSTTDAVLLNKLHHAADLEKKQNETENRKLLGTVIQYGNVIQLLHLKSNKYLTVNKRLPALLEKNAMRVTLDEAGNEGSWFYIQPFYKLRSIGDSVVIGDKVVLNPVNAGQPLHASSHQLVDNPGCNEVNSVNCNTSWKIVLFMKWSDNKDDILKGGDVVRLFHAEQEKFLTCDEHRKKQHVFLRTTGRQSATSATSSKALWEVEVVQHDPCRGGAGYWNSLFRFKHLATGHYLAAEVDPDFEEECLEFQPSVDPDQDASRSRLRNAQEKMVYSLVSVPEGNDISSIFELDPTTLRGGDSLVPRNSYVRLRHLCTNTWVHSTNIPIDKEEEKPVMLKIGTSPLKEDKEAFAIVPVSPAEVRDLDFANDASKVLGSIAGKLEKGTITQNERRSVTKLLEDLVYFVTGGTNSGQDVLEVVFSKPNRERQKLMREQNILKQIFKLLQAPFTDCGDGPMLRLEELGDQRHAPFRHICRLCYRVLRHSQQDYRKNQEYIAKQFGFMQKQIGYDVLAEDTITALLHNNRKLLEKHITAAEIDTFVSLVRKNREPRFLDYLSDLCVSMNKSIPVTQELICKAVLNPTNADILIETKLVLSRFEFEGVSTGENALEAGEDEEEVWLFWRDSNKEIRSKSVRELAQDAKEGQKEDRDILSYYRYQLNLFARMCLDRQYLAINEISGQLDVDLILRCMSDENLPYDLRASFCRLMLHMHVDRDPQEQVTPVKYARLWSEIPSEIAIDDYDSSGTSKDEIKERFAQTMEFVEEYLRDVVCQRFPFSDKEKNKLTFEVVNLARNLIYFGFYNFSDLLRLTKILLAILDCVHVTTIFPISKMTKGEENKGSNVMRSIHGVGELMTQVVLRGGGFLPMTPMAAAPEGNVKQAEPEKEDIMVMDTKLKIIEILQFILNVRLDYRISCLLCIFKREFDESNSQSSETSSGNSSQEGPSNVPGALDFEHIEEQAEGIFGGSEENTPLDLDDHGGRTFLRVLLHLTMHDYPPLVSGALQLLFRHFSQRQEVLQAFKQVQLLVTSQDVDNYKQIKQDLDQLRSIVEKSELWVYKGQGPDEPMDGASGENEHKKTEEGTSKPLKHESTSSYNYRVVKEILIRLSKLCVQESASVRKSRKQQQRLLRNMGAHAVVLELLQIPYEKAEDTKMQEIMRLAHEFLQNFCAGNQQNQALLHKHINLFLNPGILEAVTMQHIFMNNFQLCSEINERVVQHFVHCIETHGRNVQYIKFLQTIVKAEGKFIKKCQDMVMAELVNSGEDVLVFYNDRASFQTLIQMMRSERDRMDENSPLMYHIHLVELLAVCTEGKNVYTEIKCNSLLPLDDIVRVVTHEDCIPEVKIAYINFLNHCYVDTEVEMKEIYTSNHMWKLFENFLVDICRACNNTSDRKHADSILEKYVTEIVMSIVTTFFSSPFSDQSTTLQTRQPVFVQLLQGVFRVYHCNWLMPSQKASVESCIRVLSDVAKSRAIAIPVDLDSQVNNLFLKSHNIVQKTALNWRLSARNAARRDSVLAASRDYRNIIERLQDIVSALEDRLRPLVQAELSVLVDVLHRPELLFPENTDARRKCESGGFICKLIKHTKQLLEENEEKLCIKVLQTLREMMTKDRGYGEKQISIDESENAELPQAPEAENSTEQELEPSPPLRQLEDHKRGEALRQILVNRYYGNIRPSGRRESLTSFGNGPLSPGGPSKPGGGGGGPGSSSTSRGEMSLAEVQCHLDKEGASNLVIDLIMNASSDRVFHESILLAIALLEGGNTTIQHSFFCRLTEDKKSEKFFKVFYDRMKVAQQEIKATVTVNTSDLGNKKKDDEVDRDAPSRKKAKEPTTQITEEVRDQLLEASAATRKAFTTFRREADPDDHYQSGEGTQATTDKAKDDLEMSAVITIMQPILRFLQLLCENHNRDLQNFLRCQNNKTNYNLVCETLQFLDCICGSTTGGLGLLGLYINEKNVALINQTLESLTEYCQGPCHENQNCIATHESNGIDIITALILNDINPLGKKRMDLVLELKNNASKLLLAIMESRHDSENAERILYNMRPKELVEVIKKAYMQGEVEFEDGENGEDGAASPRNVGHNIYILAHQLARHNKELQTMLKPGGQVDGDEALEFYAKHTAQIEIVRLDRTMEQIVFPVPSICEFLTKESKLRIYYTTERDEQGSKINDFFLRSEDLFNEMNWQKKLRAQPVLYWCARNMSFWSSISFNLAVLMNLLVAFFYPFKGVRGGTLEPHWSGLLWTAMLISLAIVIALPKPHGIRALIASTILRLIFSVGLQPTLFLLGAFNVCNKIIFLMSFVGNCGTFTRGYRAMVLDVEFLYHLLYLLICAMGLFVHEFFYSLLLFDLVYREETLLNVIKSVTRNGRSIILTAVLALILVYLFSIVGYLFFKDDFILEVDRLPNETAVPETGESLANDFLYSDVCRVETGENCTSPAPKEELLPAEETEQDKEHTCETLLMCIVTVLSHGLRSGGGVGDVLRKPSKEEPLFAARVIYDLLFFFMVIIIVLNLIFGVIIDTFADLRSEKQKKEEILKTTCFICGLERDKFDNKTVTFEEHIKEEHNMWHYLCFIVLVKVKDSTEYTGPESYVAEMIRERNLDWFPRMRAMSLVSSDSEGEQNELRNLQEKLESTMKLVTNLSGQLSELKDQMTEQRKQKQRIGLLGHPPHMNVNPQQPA
UniProt P38647, residues 47-679: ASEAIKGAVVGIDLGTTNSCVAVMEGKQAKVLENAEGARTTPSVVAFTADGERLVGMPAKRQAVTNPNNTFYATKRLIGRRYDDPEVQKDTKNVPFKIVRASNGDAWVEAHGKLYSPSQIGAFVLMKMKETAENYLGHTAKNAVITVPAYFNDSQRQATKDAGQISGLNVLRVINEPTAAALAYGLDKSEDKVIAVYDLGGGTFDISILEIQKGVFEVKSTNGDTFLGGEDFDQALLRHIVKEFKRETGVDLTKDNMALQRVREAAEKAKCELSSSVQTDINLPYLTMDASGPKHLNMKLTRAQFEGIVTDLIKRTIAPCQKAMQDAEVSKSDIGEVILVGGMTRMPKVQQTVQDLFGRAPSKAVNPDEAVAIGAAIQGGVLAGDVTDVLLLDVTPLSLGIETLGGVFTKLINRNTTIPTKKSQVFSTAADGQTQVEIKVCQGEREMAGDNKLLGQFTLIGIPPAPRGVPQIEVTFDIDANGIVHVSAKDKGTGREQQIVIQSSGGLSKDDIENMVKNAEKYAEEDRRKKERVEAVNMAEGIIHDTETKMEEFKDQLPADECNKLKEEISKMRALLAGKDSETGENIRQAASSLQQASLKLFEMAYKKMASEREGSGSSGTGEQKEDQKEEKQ

Biological target: IP3R1 (mouse (endogenous in cardiomyocytes/heart of C57BL/6JOlaHsd mice)) (UniProt P11881)
Experiment: co-IP; 500 ug of cardiomyocyte or heart lysate with 2 ug IP3R1 antibody (sc28614) overnight at 4 C in 50 mM Tris, 150 mM NaCl, 1% Triton X-100, 1 mM EDTA; protein G magnetic beads; blots for IP3R1, VDAC, Grp75; SD, HFHSD (16 weeks) and HFHSD/SD (8 weeks of diet reversal) mice

binding: binds
Substance: Grp75 (from UniProt P38647 47-679)
